No constants are given. Whether binding was seen depends on the method and setting. Binding seen in cells or lysates may run through a third protein. Some entries that bind do so weakly or less than the wild type.
Assays:
[1] = biological target: topoisomerase II alpha (TOP2α) (human (endogenous in U2OS)) (UniProt P11388); assay: proximity ligation
[2] = biological target: topoisomerase I (TOP1) (human (endogenous in U2OS)) (UniProt P11387); assay: proximity ligation

Amino acid sequences for entries named in this document (tags omitted).
UniProt P11388: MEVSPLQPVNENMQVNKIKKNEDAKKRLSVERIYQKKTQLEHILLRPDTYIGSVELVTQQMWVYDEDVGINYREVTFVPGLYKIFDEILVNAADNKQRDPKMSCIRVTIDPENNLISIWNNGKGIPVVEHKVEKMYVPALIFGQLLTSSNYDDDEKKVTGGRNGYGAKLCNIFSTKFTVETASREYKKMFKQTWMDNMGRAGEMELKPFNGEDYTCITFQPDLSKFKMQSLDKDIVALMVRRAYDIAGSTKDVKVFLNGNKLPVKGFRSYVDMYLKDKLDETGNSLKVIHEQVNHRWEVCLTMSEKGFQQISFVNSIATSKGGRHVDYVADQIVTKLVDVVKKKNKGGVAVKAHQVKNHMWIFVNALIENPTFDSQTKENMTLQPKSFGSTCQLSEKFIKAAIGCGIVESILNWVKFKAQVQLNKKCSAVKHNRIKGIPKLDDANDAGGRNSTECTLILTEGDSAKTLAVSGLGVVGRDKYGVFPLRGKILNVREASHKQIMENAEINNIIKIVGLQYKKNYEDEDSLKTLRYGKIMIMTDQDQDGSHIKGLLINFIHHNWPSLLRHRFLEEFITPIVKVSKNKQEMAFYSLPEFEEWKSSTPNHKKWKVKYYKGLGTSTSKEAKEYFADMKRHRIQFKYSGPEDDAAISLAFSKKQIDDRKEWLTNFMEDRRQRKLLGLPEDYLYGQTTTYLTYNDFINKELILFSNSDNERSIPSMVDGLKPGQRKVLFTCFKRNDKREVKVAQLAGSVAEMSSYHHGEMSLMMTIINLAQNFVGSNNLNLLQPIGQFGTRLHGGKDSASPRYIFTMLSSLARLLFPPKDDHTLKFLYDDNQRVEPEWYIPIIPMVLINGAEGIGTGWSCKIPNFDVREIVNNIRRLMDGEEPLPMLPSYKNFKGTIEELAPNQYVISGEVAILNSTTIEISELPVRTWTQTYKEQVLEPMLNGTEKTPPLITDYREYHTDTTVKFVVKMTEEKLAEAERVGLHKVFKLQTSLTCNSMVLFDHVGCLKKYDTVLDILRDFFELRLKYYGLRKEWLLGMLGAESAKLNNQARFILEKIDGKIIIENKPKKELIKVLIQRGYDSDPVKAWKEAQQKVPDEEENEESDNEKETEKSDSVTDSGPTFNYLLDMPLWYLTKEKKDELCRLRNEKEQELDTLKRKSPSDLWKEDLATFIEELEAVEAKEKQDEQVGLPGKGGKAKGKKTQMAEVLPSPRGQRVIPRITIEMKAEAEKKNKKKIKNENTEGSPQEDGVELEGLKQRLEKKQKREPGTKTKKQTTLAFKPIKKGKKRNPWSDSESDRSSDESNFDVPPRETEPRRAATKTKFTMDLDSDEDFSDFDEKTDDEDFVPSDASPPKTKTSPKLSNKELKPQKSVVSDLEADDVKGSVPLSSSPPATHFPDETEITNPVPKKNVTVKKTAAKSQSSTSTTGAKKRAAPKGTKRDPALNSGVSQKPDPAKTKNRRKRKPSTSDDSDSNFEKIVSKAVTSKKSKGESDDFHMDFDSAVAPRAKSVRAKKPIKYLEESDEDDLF
UniProt P11387: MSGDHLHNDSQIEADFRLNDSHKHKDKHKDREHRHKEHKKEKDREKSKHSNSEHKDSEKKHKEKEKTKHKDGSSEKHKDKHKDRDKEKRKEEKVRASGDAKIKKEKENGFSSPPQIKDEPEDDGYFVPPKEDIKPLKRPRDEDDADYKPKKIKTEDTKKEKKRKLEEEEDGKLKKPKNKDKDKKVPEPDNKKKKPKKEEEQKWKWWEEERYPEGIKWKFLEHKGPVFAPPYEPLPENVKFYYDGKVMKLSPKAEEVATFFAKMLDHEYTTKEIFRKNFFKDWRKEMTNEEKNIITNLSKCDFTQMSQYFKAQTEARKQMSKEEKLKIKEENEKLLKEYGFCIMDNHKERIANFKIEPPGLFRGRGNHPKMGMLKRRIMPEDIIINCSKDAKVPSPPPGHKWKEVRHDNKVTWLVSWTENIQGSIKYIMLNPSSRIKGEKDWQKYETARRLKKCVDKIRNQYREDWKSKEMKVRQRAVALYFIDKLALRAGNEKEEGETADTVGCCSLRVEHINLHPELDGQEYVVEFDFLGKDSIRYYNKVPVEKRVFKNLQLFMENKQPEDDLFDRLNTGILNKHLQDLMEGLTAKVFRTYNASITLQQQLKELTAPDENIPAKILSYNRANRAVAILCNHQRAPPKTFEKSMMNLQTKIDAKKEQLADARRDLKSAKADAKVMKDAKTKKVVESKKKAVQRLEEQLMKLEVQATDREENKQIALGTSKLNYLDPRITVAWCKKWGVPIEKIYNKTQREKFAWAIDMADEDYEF
UniProt P39748: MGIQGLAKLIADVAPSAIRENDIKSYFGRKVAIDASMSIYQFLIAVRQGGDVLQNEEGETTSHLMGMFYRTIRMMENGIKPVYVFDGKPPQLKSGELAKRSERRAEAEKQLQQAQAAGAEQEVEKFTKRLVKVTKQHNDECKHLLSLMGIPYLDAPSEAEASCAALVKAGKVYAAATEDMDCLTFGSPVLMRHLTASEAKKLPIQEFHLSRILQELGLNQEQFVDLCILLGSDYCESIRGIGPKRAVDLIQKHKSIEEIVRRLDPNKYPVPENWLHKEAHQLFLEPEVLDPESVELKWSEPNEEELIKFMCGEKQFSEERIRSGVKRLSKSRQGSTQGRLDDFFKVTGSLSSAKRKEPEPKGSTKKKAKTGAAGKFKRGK

Row | Substance | binding [1] | binding [2]
1 | FEN1-FLAG WT (from UniProt P39748 1-380) | binds | binds
2 | flap endonuclease 1 (FEN1) (from UniProt P39748 1-380) | binds | binds
